We go through 28 substances from US8076285B2 (Aicuris GmbH & Co. KG, priority 2006, dated 2011).

The nature of this series: general procedure: Fmoc solid-phase peptide synthesis; 2-chlorotrityl chloride resin (Iris Biotech), 0.85 mmol/g; TBTU/DIEA.
The mark [1] stands for this setting: late stage modification step, trifluoroacetate.
[2] abbreviates: coupling step, trifluoroacetate.
Setting [3] is: cyclisation step, trifluoroacetate.

Regarding “[(3R)-3-Amino-L-phenylalanyl]-[(3R)-3-hydroxy-L-leucyl]-L-leucyl-D-arginyl-L-isoleucyl-L-allothreonyl-glycyl-L-asparaginyl-L-serine C^1.9-N^3.1-lactam bishydrochloride”, under setting [1], the step yield is on record as 96% of theory. Still for that read-out and setting: to “Pentafluorophenyl [(3R)-N^2-(tert-butoxycarbonyl)-3-hydroxy-L-leucyl]-L-leucyl-D-arginyl-L-isoleucyl-L-allothreoninate trifluoroacetate” belongs 45% of theory. For “{(3R)-N^2-[(9H-Fluoren-9-ylmethoxy)carbonyl]-3-[(tert-butoxycarbonyl)amino]-L-phenylalanyl}-[(3R)-3-hydroxy-L-leucyl]-L-leucyl-(N^6-benzyloxycarbonyl-D-lysyl)-L-isoleucyl-L-allothreonyl-glycyl-L-seryl-L-serine trifluoroacetate”, under setting [2], the step yield is 21% of theory. Take “{(3R)-N^2-(tert-Butoxycarbonyl)-3-hydroxy-L-leucyl}-L-leucyl-D-arginyl-L-isoleucyl-{O^3-(tert-butyl)-L-allothreonyl}-glycyl-{N^4-trityl-L-asparaginyl}-[O^3-(tert-butyl)-L-serine]”: the step yield under setting [1] was 61.2% of theory.

Regarding “[(3R)-N^2-(Benzyloxycarbonyl)-3-{(tert-butoxycarbonyl)amino}-L-phenylalanyl]-[(3R)-3-hydroxy-L-leucyl]-L-leucyl-D-arginyl-L-isoleucyl-L-allothreonyl-glycyl-glycyl-L-serine trifluoroacetate”, under setting [2], the “final purity (method not given)” value came out at 60% pure and the step yield is given as 84% of theory.

In the case of “[3-tert-Butyl-D-alanyl]-[3-tert-butyl-L-alanyl]-[(3R)-3-amino-L-phenylalanyl]-[(3R)-3-hydroxy-L-leucyl]-L-leucyl-D-arginyl-L-isoleucyl-L-allothreonyl-glycyl-L-alanyl-L-serine C^1.11-N^3.3-lactam bistrifluoroacetate”, the step yield under setting [1] is 20% of theory. Consider “[N^2-(tert.-Butoxycarbonyl)-3-tert-butyl-D-alanyl]-[3-tert-butyl-L-alanyl]-[(3R)-3-amino-L-phenylalanyl]-[(3R)-3-hydroxy-L-leucyl]-L-leucyl-D-arginyl-L-isoleucyl-L-allothreonyl-glycyl-L-alanyl-L-serine C^1.11-N^3.3-lactam hydrochloride”, for which, under “coupling step, hydrochloride”, the step yield was 98% of theory.

Take “[(3R)-N^2-(Benzyloxycarbonyl)-3-amino-L-phenylalanyl]-[(3R)-3-hydroxy-L-leucyl]-L-leucyl-D-arginyl-L-isoleucyl-L-allothreonyl-glycyl-[(2S)-2-amino-3-(9H-fluoren-9-ylmethoxycarbonyl)aminobutyryl]-L-serine C^1.9-N^3.1-lactam trifluoroacetate”: the cyclisation yield (cyclisation step, from 359A, trifluoroacetate) is reported as 67% of theory. Turning to “[(3R)-N^2-(Benzyloxycarbonyl)-3-amino-L-phenylalanyl]-[(3R)-3-hydroxy-L-leucyl]-L-leucyl-D-arginyl-[3-trimethylsilyl-L-alanlyl]-L-allothreonyl-glycyl-L-seryl-L-serine C^1.9-N^3.1-lactam trifluoroacetate”, where the note is “cyclisation step, from 366A, trifluoroacetate”, the cyclisation yield is given as 51% of theory. Further, under setting [3], the “final purity (method not given)” value turned out to be 42% pure. Consider “[(3R)-N^2-(Benzyloxycarbonyl)-3-amino-L-phenylalanyl]-[(3R)-3-hydroxy-L-leucyl]-L-isoleucyl-D-arginyl-L-isoleucyl-L-allothreonyl-glycyl-L-seryl-L-serine C^1.9-N^3.1-lactam trifluoroacetate”, for which, under “cyclisation step, from 375A, trifluoroacetate”, the cyclisation yield is listed as 62% of theory. The “final purity (method not given)” value under setting [3] turned out to be 95% pure.

Regarding “[(3R)-3-Amino-4-(dimethylaminophenyl)-L-alanyl]-[(3R)-3-hydroxy-L-leucyl]-L-leucyl-D-arginyl-L-isoleucyl-L-allothreonyl-glycyl-[(3S)-3-hydroxy-L-asparaginyl]-L-serine C^1.9-N^3.1-lactam trishydrochloride”, under setting [1], the step yield was 98% of theory.

With “[3-tert-Butyl-D-alanyl]-[3-tert-butyl-L-alanyl]-[(3R)-3-amino-L-phenylalanyl]-[(3R)-3-hydroxy-L-leucyl]-[3-tert-butyl-L-alanyl]-D-arginyl-L-isoleucyl-L-allothreonyl-glycyl-L-seryl-L-serine C^1.11-N^3.3-lactam”, the step yield (late stage modification step, from compound 434A, trifluoroacetate) is 25% of theory. In the case of “(3R)-N^2-[(9H-Fluoren-9-ylmethoxy)carbonyl]-3-[(tert-butoxycarbonyl)amino]-L-phenylalanyl 1-[(3R)-3-hydroxy-L-leucyl]-L-leucyl-(N^5-benzyloxycarbonyl-D-orrnthyl)-L-isoleucyl-L-allothreonyl-glycyl-L-seryl-L-serine trifluoroacetate”, under setting [2], the “final purity (method not given)” value was found to be 33% pure and the step yield is listed as 17% of theory. “N^2-(Benzyloxycarbonyl)-N^3-{N^2.1-tert-butoxycarbonyl[(3R)-3-hydroxy-L-leucyl]-L-leucyl-D-arginyl-L-isoleucyl-L-allothreonyl-glycyl-[(3S)-3-hydroxy-L-asparaginyl]-L-seryl}-(3R)-3-amino-O-methyl-L-tyrosine trifluoroacetate”: the step yield under setting [1] is listed as 99% of theory. As for “[(3R)-N^2-(Benzyloxycarbonyl)-3-amino-L-phenylalanyl]-[(3R)-3-hydroxy-L-leucyl]-L-leucyl-D-arginyl-L-isoleucyl-L-valyl-glycyl-L-seryl-L-serine C^1.9-N^3.1-lactam trifluoroacetate”, the cyclisation yield (cyclisation step, from 374A, trifluoroacetate) is listed as 62% of theory. For the substance “[3-tert-Butyl-D-alanyl]-[3-tert-butyl-L-alanyl]-[(3R)-3-amino-L-phenylalanyl]-[(3R)-3-hydroxy-L-leucyl]-L-leucyl-D-arginyl-L-isoleucyl-L-valyl-glycyl-L-seryl-L-serine C^1.11-N^3.3-lactam”, under “late stage modification step, from compound 449A, trifluoroacetate”, the step yield is 10% of theory. With “[(3R)-N^2-(tert-Butoxycarbonyl)-3-hydroxy-L-leucyl]-L-leucyl-D-arginyl-L-isoleucyl-L-allothreonyl-glycyl-L-threonyl-L-serine bistrifluoroacetate”, the step yield under setting [1] is 98% of theory.

For “[(3R)-N^2-(Benzyloxycarbonyl)-3-amino-L-phenylalanyl]-[(3R)-3-hydroxy-L-leucyl]-L-leucyl-D-arginyl-L-isoleucyl-L-allothreonyl-glycyl-L-asparaginyl-L-serine C^1.9-N^3.1-lactam trifluoroacetate”, the cyclisation yield under setting [3] is on record as 75% of theory. Consider “[(3R)-N^2-(Benzyloxycarbonyl)-3-amino-L-phenylalanyl]-[(3R)-3-hydroxy-L-leucyl]-L-leucyl-D-arginyl-L-isoleucyl-L-seryl-glycyl-L-seryl-L-serine bistrifluoroacetate”, for which, under setting [1], the “crude purity (method not given)” value turned out to be 94% pure. Regarding “N^2.1-(tert-Butoxycarbonyl)-[3-trimethylsilyl-D-alanyl]-[3-tert-butyl-L-alanyl]-[(3R)-3-amino-4-(dimethylaminophenyl)-L-alanyl]-[(3R)-3-hydroxy-L-leucyl]-L-leucyl-D-arginyl-L-iso-leucyl-L-allothreonyl-glycyl-[(3S)-3-hydroxy-L-asparaginyl]-L-serine C^1.11-N^3.3-lactam bishydrochloride”, the step yield under setting [2] was 96% of theory. Consider “[3-tert-Butyl-D-alanyl]-[3-tert-butyl-L-alanyl]-[(3R)-3-amino-L-phenylalanyl]-[(3R)-3-hydroxy-L-leucyl]-L-leucyl-D-arginyl-L-valyl-L-allothreonyl-glycyl-L-seryl-L-serine C^1.11-N^3.3-lactam”, for which the step yield (late stage modification step, from compound 437A, trifluoroacetate) is listed as 44% of theory. For “[3-tert-Butyl-D-alanyl]-[3-tert-butyl-L-alanyl]-[(3R)-3-amino-L-phenylalanyl]-[(3R)-3-hydroxy-L-leucyl]-L-leucyl-D-arginyl-L-isoleucyl-L-seryl-glycyl-L-seryl-L-serine C^1.11-N^3.3-lactam”, under “late stage modification step, from compound 436A, trifluoroacetate”, the step yield is 54% of theory. Turning to “[3-tert-Butyl-D-alanyl]-[3-tert-butyl-L-alanyl]-[(3R)-3-amino-L-phenylalanyl]-[(3R)-3-hydroxy-L-leucyl]-L-leucyl-D-arginyl-L-isoleucyl-L-allothreonyl-glycyl-[L-threonyl]-L-serine C^1.11-N^3.2-lactam bistrifluoroacetate”, the step yield under setting [1] is listed as 27% of theory. For “[(3R)-N^2-(Benzyloxycarbonyl)-3-{(tert-butoxycarbonyl)amino}-L-phenylalanyl]-[(3R)-3-hydroxy-L-leucyl]-L-leucyl-D-arginyl-L-isoleucyl-L valyl-glycyl-L-seryl-L-serine trifluoroacetate”, under setting [2], the step yield is recorded as 24% of theory. On the same count and under the same terms, with “{(3R)-N^2-[(Benzyloxy)carbonyl]-3-[(tert-butoxycarbonyl)amino]-L-phenylalanyl}-[(3R)-3-hydroxy-L-leucyl]-L-leucyl-D-arginyl-L-isoleucyl-L-allothreonyl-glycyl-[(3S)-3-hydroxy-L-asparaginyl]-L-serine trifluoroacetate” the figure was 61.4% of theory; with “Benzyl [(3R)-N^2-(tert-Butoxycarbonyl)-3-hydroxy-L-leucyl]-L-leucyl-D-arginyl-L-isoleucyl-L-allothreonyl-glycyl-L-threonyl-L-serinate trifluoroacetate”, 20% of theory.

On to “[(3R)-3-Amino-L-phenylalanyl]-[(3R)-3-hydroxy-L-leucyl]-L-leucyl-D-arginyl-L-isoleucyl-L-allothreonyl-glycyl-[(3S)-3-hydroxy-L-asparaginyl]-L-serine C^1.9-N^3.1-lactam bishydrochloride”, for which the step yield under setting [1] was 95% of theory.

As for “[(3R)-N^2-(Benzyloxycarbonyl)-3-{(tert-butoxycarbonyl)amino}-L-phenylalanyl]-[(3R)-3-hydroxy-L-leucyl]-(3-trimethylsilyl-L-alanyl)-D-arginyl-L-isoleucyl-L-allothreonyl-glycyl-L-seryl-L-serine trifluoroacetate”, under setting [2], the step yield is listed as 85% of theory.
